These are yes or no findings as the source states them, for the method shown. In cells and extracts the contact can be indirect. Some binding calls cover weakened binding; strength is not graded here. For some of these results: Where a sequence is shown, tags or fusion partners need not be part of it.
Experiments:
[1] = target: T1, S-tagged mouse USP2-45 (ubiquitin-specific protease 2-45) (mouse) (UniProt O88623); assay: pull-down; 1 mg lysate of transfected HEK-293 cells; S-tagged USP2-45 captured with biotinylated S-protein and streptavidin sepharose beads, 4 °C; beads washed five times with lysis buffer; Western blot; n = 3
T1 sequence: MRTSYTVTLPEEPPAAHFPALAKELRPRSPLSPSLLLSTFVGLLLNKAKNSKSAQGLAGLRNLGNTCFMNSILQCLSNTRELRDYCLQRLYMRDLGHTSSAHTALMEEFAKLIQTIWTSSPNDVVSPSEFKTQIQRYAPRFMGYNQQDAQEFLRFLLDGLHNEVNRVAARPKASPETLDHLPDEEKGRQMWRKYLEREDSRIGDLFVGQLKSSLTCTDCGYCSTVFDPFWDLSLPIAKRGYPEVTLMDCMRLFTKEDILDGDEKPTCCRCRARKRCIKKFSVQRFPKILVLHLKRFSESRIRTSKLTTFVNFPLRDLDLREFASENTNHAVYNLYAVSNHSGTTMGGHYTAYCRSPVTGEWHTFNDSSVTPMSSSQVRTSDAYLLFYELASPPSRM

The chains behind the UniProt entries cited, without tags or fusion partners. Where a name states a change or a piece, a line headed by the entry shows the natural chain unless it says otherwise. Residues count along the entry.
UniProt P15381: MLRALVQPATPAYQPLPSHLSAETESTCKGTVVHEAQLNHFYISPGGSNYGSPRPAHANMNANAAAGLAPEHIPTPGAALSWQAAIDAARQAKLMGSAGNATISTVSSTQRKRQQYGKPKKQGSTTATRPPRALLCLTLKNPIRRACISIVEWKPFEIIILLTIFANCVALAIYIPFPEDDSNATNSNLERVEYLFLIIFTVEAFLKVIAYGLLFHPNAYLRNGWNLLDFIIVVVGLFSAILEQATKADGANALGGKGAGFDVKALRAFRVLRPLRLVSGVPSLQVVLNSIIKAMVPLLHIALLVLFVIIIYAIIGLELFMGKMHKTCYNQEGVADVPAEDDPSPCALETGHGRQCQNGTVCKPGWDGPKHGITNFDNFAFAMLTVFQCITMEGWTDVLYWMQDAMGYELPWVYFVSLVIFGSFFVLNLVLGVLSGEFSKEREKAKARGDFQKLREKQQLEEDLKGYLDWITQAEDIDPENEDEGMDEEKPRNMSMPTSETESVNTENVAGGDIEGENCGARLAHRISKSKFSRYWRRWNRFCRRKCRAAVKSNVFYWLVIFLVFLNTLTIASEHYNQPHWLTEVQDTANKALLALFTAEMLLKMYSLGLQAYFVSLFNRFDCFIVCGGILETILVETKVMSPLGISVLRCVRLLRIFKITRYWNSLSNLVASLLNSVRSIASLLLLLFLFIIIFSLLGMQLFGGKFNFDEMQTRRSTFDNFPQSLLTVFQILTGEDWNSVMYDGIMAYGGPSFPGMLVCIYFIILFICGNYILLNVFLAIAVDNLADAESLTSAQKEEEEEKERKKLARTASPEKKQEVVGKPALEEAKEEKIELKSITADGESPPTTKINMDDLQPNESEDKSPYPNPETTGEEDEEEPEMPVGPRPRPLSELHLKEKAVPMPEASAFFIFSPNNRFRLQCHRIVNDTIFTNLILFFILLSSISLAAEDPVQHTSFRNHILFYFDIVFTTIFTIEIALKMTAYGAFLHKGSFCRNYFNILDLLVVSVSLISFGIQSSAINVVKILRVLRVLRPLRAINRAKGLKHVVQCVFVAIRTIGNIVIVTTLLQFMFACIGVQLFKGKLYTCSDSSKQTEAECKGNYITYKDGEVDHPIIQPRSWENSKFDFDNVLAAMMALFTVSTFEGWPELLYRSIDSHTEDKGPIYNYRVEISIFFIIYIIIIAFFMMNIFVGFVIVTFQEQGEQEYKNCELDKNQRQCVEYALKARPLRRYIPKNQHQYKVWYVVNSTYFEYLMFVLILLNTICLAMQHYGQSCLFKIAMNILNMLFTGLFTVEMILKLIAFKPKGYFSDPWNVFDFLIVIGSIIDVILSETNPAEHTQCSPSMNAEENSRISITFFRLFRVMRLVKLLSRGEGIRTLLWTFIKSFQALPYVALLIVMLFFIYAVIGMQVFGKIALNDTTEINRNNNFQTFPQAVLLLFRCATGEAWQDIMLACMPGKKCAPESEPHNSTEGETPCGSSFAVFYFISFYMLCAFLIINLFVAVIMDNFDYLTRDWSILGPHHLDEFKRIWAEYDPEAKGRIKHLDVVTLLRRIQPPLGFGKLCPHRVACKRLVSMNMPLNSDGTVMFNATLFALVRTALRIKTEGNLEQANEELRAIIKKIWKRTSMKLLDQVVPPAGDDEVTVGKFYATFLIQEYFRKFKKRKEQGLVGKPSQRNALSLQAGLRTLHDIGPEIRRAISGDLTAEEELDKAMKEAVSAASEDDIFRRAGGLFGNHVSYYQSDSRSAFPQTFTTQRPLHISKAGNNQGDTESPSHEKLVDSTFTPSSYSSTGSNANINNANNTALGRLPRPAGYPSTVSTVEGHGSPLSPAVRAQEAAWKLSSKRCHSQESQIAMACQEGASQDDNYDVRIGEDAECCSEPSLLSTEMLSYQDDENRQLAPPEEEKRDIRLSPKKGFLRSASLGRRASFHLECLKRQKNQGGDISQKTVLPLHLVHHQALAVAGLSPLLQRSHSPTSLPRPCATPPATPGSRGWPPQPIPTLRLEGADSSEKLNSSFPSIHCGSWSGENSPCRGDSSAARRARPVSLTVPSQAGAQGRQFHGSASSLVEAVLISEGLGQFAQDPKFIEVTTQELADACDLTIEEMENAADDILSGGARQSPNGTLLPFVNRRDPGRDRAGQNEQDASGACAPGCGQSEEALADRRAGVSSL
UniProt P13806, residues 27-1106: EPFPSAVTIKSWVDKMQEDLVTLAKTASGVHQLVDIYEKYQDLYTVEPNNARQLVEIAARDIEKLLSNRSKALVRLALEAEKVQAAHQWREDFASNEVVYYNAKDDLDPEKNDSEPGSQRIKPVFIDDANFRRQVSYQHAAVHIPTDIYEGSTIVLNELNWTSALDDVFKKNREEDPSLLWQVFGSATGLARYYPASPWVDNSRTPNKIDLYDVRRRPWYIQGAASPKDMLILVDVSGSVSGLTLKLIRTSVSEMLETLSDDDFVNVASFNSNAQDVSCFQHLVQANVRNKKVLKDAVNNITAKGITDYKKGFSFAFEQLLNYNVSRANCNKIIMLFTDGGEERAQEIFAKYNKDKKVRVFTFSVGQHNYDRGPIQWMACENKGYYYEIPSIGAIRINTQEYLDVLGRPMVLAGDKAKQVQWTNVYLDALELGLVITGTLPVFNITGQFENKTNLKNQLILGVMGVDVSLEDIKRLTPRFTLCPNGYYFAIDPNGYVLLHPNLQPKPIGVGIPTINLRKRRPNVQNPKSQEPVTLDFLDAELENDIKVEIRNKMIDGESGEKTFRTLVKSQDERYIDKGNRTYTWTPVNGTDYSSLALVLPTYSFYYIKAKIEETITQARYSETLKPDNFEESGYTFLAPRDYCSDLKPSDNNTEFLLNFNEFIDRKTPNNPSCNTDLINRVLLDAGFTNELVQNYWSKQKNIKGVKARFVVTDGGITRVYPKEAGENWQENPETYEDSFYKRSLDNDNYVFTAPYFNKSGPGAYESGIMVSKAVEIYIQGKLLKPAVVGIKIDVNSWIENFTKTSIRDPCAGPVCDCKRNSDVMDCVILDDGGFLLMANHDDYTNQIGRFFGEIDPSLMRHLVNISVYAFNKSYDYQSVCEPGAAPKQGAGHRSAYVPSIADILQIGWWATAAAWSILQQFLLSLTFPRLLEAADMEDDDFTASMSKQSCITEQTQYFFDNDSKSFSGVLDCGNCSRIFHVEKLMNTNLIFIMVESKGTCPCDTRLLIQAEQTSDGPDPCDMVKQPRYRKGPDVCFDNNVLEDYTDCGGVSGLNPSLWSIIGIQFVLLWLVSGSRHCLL

[2] = target: Rabbit Cav1.2 (cardiac isoform α1c) (rabbit) (UniProt P15381); assay: pull-down; surface biotinylation of transfected HEK-293 cells (Sulfo-NHS-SS-Biotin, 30 min, 4 °C), lysis, streptavidin sepharose pull-down of biotinylated proteins and their binding partners from 1 mg total protein, 2 h at 4 °C; Western blot; control and USP2-45-transfected cells; n = 4

| Substance | binding [1] | binding [2] |
| --- | --- | --- |
| Rabbit Cav1.2 (cardiac isoform α1c) (from UniProt P15381 1-2171) | no binding | – |
| Rabbit voltage-gated calcium channel accessory subunit α2δ-1a (from UniProt P13806 27-1106) | binds | – |
| Rabbit voltage-gated calcium channel accessory subunit β2b (from UniProt P54288 1-632) | no binding | binds |
